The values that follow come from paper PMC10579421.

These are yes or no findings as the source states them, for the method shown. Binding seen in cells or lysates may run through a third protein. A result given as binding can be weak or reduced; the word gives no strength.

This test deals with Flag-NCOR2-013 (human). Description: co-IP.

B1: JunB (protein, UniProt P17275 1-347)
chain: MCTKMEQPFYHDDSYTATGYGRAPGGLSLHDYKLLKPSLAVNLADPYRSLKAPGARGPGPEGGGGGSYFSGQGSDTGASLKLASSELERLIVPNSNGVITTTPTPPGQYFYPRGGGSGGGAGGAGGGVTEEQEGFADGFVKALDDLHKMNHVTPPNVSLGATGGPPAGPGGVYAGPEPPPVYTNLSSYSPASASSGGAGAAVGTGSSYPTTTISYLPHAPPFAGGHPAQLGLGRGASTFKEEPQTVPEARSRDATPPVSPINMEDQERIKVERKRLRNRLAATKCRKRKLERIARLEDKVKTLKAENAGLSSTAGLLREQVAQLKQKVMTHVSNGCQLLLGVKGHAF
With B1, the binding result is “binds”.
